Counter-ions that a name gives are not always drawn. The list shows a part of the results. Hit calls seldom repeat between salt and free forms of one compound.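 Kinases were expressed as nanoluciferase fusions in K562 cells and luminescence was read every 4 h between 2 and 18 h as percent of control, DMSO set to 100% and a positive control to 0%. A time point counts as decreased when the signal drops significantly (2 sigma). The hit call is the authors' own, does not follow from the count of time points alone, and its rule is not shown.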
What was measured:
Assay in all cases: number of time points (of 5) at which kinase-Nluc abundance scored as decreased, DMSO-normalised (count); higher = more persistent destabilization
Details in all cases: K562; 2-18 h
FLT3 = FLT3 (UniProt P36888)
FYN = FYN (UniProt P06241)
GSK3A = GSK3A (UniProt P49840)
HER2 = HER2 (UniProt P04626)
INSRR = INSRR (UniProt P14616)
IRAK3 = IRAK3 (UniProt Q9Y616)
JAK1 = JAK1 (UniProt P23458)
LCK = LCK (UniProt P06239)
LIMK1 = LIMK1 (UniProt P53667)
LIMK2 = LIMK2 (UniProt P53671)

Protein sequences, listed by entry. Tags and fused reporters are not part of them. Lines headed by an entry give the natural chain unless they say otherwise; changes in a name come on top.
UniProt P36888, whole entry: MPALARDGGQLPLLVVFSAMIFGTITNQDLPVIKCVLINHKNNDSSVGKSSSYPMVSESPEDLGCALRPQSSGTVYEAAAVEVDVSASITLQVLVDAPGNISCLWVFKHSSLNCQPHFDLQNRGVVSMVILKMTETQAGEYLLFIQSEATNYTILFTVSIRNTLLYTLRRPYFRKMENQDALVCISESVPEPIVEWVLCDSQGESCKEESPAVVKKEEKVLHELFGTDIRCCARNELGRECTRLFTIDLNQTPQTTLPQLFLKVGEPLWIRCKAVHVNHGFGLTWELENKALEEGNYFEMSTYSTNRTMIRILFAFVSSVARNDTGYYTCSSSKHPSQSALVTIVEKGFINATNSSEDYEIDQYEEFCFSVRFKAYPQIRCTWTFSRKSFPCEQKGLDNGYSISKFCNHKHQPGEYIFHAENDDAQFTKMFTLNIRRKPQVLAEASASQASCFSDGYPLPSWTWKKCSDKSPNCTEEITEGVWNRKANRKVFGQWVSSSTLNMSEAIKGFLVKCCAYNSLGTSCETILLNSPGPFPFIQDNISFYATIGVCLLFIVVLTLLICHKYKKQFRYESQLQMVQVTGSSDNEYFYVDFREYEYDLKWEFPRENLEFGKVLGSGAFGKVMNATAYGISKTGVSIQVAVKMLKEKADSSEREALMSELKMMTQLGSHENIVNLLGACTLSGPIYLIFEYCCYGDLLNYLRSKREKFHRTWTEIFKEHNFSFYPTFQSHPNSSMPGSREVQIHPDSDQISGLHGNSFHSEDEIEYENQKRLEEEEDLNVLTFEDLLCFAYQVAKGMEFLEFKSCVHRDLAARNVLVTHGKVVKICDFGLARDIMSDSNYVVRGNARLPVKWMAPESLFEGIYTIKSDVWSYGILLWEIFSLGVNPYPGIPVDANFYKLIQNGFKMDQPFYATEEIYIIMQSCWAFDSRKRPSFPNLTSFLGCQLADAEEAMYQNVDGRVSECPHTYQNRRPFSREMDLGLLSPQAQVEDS
UniProt P06241, whole entry, looked up: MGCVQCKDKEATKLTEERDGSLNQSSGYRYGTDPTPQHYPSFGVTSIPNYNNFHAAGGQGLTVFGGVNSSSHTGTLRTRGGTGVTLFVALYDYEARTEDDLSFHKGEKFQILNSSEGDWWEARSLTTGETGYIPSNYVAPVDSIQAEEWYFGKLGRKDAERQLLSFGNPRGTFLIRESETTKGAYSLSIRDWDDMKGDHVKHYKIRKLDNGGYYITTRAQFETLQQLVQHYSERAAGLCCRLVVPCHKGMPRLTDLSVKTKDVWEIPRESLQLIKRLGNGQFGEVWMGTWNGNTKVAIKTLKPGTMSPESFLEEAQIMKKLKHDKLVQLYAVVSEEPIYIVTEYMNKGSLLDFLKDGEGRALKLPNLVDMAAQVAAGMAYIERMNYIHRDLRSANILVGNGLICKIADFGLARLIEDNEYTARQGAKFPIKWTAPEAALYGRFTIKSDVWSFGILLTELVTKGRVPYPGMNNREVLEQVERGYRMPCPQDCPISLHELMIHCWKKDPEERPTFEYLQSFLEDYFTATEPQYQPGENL
UniProt P49840: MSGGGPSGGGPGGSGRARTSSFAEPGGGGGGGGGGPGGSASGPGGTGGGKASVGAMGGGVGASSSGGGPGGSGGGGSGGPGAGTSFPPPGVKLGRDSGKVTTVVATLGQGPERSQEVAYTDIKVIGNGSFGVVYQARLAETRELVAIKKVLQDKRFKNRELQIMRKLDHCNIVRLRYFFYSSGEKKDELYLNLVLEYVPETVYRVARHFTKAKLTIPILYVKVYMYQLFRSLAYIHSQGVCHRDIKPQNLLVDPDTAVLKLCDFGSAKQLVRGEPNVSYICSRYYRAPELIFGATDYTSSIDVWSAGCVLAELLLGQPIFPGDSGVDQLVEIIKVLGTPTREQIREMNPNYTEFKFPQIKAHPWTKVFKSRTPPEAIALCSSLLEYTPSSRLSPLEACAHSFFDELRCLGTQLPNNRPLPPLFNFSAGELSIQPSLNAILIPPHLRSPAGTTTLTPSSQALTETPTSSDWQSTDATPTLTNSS
UniProt Q9Y616: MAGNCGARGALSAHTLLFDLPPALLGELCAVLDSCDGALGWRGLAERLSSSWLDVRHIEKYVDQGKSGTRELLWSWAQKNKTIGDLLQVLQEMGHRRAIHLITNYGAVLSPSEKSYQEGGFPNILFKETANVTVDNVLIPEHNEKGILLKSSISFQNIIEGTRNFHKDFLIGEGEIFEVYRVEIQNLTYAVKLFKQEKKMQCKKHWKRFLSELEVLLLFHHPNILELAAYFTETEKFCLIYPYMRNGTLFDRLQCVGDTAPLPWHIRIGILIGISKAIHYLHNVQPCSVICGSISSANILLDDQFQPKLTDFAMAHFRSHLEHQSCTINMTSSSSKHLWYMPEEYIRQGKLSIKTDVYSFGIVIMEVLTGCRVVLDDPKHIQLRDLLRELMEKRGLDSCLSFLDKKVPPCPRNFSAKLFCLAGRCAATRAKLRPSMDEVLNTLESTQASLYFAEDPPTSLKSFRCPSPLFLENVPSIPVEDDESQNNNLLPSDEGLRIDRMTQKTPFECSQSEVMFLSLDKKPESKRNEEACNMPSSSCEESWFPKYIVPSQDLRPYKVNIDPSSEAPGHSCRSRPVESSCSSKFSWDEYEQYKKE
UniProt P23458: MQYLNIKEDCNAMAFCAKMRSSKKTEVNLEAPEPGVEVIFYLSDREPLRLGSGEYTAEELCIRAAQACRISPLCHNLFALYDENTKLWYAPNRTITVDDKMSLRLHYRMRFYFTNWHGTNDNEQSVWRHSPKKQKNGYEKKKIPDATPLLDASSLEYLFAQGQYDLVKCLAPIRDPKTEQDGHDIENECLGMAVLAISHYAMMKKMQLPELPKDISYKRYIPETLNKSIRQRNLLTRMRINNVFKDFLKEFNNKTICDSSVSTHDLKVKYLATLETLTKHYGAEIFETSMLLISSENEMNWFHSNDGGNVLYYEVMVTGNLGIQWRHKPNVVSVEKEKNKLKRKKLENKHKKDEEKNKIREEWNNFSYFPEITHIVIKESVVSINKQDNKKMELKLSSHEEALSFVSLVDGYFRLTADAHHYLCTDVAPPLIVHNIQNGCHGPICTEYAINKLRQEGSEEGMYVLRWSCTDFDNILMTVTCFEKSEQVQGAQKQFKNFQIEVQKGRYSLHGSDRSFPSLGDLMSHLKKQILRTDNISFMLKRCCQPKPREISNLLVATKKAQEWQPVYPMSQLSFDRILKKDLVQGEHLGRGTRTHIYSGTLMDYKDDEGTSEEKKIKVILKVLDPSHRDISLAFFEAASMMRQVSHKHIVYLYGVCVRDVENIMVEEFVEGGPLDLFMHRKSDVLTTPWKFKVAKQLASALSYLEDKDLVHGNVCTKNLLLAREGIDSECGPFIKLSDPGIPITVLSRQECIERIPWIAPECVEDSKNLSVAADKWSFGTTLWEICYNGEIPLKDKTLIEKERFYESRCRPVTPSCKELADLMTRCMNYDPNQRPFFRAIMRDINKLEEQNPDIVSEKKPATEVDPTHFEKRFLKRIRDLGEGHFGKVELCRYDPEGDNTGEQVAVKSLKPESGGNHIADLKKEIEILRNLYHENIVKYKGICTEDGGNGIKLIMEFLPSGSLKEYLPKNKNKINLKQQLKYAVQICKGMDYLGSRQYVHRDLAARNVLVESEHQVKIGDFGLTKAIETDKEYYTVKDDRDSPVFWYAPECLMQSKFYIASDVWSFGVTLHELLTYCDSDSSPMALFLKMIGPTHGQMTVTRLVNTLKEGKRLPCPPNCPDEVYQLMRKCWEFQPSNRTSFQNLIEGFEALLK
UniProt P06239: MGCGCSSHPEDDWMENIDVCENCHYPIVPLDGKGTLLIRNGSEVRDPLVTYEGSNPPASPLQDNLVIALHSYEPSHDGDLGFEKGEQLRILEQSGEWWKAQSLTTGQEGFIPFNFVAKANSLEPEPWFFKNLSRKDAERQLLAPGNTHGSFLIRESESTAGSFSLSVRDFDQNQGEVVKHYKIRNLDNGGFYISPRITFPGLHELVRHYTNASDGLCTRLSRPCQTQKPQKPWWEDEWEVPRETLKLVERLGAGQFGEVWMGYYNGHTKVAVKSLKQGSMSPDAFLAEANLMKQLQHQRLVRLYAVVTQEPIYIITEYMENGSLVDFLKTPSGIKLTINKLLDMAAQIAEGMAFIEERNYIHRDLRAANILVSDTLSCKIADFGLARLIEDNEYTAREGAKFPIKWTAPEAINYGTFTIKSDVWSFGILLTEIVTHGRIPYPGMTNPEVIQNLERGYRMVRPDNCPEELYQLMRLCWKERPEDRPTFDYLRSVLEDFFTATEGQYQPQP
UniProt P53667: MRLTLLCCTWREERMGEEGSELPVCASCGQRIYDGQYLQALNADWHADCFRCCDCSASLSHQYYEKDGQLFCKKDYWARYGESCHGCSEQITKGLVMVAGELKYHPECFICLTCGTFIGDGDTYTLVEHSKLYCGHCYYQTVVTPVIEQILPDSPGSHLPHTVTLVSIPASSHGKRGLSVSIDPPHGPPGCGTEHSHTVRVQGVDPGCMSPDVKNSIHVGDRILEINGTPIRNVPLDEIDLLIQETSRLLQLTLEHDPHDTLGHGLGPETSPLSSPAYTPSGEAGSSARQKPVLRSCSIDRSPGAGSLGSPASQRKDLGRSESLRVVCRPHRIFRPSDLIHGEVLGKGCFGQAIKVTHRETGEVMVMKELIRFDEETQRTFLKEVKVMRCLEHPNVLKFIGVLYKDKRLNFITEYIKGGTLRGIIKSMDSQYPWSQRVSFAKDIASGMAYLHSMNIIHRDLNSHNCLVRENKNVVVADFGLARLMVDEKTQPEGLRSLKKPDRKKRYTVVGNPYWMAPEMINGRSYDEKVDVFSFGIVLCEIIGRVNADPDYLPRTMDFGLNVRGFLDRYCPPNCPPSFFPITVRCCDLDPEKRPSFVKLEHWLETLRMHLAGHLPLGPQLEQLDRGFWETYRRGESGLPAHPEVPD
UniProt P53671: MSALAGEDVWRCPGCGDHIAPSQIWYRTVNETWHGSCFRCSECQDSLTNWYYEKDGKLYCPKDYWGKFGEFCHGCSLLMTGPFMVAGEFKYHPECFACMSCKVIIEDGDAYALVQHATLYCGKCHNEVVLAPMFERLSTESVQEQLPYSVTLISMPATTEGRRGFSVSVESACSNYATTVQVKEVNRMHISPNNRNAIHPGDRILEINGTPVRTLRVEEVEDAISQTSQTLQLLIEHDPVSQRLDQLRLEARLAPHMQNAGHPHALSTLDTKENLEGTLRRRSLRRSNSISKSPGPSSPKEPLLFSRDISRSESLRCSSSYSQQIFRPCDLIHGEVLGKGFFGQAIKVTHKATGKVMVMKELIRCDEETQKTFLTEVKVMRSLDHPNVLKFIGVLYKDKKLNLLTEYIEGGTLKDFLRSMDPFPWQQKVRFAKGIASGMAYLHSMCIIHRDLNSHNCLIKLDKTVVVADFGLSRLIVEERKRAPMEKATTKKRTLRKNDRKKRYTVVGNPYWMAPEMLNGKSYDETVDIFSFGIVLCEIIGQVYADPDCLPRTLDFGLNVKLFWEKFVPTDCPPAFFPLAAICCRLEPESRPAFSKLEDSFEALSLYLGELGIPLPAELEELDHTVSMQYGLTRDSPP

Row | SMILES | number of time points (FLT3) | number of time points (FYN) | number of time points (GSK3A) | number of time points (HER2) | number of time points (INSRR) | number of time points (IRAK3) | number of time points (JAK1) | number of time points (LCK) | number of time points (LIMK1) | number of time points (LIMK2)
1 | COc1nc(-c2ccnc(NC(=O)C3CC3)c2)sc1C(N)=O [GSK-3β inhibitor 2] (10 µM) | 1 | 0 | 0 | 0 | 0 | 0 | 0 | 0 | 0 | 0
2 | C=CC(=O)N1CCC(Oc2cc3c(Nc4ccc(Cl)c(Cl)c4F)ncnc3cc2OC)CC1 [Poziotinib] (2.5 µM) | 0 | 0 | 0 | 2 | 0 | 0 | 0 | 0 | 0 | 0
3 | CC(C)c1cnn2c(NCc3ccccc3-n3cccn3)nc(OC3CCCNC3)nc12 (stereo not given) (2.5 µM) | 0 | 0 | 0 | 0 | 0 | 0 | 0 | 0 | 0 | 0
4 | CC(C)N(C)c1nc2cc(C(=O)O)ccc2nc1-c1ccc(F)cc1 (10 µM) | 0 | 0 | 0 | 0 | 0 | 0 | 0 | 0 | 0 | 0
5 | O=C1NC(=O)C(=Cc2ccc3c(c2)OCO3)S1 (10 µM) | 0 | 0 | 0 | 0 | 0 | 0 | 0 | 0 | 0 | 0
6 | CC(C)C[C@H](NC(=O)[C@H](CCCCN)NC(=O)[C@H](CO)NC(=O)[C@@H](N)CC(C)C)C(N)=O [LSKL, Inhibitor of Thrombospondin (TSP-1) (TFA)] (10 µM) | 0 | 0 | 0 | 0 | 0 | 0 | 0 | 0 | 0 | 0
7 | CCOc1c([C@H](C)n2nc(C)c3c(N)ncnc32)cc(Cl)c(F)c1[C@@H]1CNC(=O)C1 [Parsaclisib (hydrochloride)] (10 µM) | 0 | 0 | 0 | 0 | 0 | 0 | 0 | 0 | 0 | 0
8 | COc1cc(C(C)=O)cc(OC)c1O [Acetosyringone] (10 µM) | 0 | 0 | 0 | 0 | 0 | 0 | 0 | 0 | 0 | 0
9 | Nc1ncc(-c2ccc(C(=O)N3CCNCC3)cc2)nc1-c1ccc(C(F)(F)F)cc1 (10 µM) | 0 | 0 | 0 | 0 | 0 | 0 | 0 | 0 | 0 | 0
10 | Cc1ccc(-c2ccc3c(ccc4sc5c(c43)NC[C@@H](C)NC5=O)n2)cn1 (10 µM) | 0 | 0 | 0 | 0 | 0 | 0 | 0 | 0 | 0 | 0
11 | COc1ccc(CN2C3CC2CN(c2ccc(-c4cc(OCC(C)(C)O)cn5ncc(C#N)c45)cn2)C3)cn1 [Selpercatinib] (10 µM) | 0 | 0 | 0 | 0 | 0 | 0 | 0 | 0 | 0 | 0
12 | O=c1cc(-c2ccc(O)c(O)c2O)oc2ccccc12 (10 µM) | 0 | 0 | 0 | 0 | 0 | 0 | 0 | 0 | 0 | 0
13 | CC[C@@H]1C(=O)N(C)c2cnc(Nc3ccc(C(=O)N[C@H]4CC[C@H](N5CCN(CC6CC6)CC5)CC4)cc3OC)nc2N1C(C)C [Volasertib] (2.5 µM) | 0 | 0 | 0 | 0 | 1 | 0 | 0 | 0 | 0 | 0
14 | Cc1cccc(-c2[nH]ncc2-c2ccc3ncccc3n2)n1 (10 µM) | 0 | 0 | 0 | 0 | 0 | 0 | 0 | 0 | 0 | 0
15 | O=C1NC(=O)/C(=C/c2ccc(-c3ccc(F)cc3O)o2)S1 (10 µM) | 0 | 0 | 0 | 0 | 0 | 0 | 0 | 0 | 0 | 0
16 | Cn1cc(-c2ccc(F)c(C(F)(F)F)c2)nc1C1CCN(c2ncnc3[nH]ncc23)CC1 (10 µM) | 0 | 0 | 0 | 0 | 0 | 0 | 0 | 0 | 0 | 0
17 | COc1ccc2c(c1)c(C1=C(c3c[nH]c4ccccc34)C(=O)NC1=O)cn2CCCN(C)C (10 µM) | 0 | 0 | 0 | 0 | 0 | 0 | 0 | 0 | 0 | 0

Numbers 6–7 from above:
Row | SMILES | number of time points (FLT3) | number of time points (FYN) | number of time points (GSK3A) | number of time points (HER2) | number of time points (INSRR) | number of time points (IRAK3) | number of time points (JAK1) | number of time points (LCK) | number of time points (LIMK1) | number of time points (LIMK2)
6 | CC(C)C[C@H](NC(=O)[C@H](CCCCN)NC(=O)[C@H](CO)NC(=O)[C@@H](N)CC(C)C)C(N)=O [LSKL, Inhibitor of Thrombospondin (TSP-1) (TFA)] (10 µM) | 0 | 0 | 0 | 0 | 0 | 0 | 0 | 0 | 0 | 0
7 | CCOc1c([C@H](C)n2nc(C)c3c(N)ncnc32)cc(Cl)c(F)c1[C@@H]1CNC(=O)C1 [Parsaclisib (hydrochloride)] (10 µM) | 0 | 0 | 0 | 0 | 0 | 0 | 0 | 0 | 0 | 0

(further entries)

Row | SMILES | number of time points (FLT3) | number of time points (FYN) | number of time points (GSK3A) | number of time points (HER2) | number of time points (INSRR) | number of time points (IRAK3) | number of time points (JAK1) | number of time points (LCK) | number of time points (LIMK1) | number of time points (LIMK2)
18 | CC[C@@H]1[C@H](F)C(=O)N[C@@H]1COc1nccc2cc(C(N)=O)c(OC)cc12 (10 µM) | 0 | 0 | 0 | 0 | 0 | 0 | 0 | 0 | 0 | 0
19 | CCc1cccc(CC)c1NC(=O)c1nn(C)c2c1CCc1cnc(Nc3ccc(C(=O)NC4CCN(C)CC4)cc3OC(F)(F)F)nc1-2 (2 µM) | 0 | 0 | 0 | 0 | 0 | 0 | 0 | 0 | 0 | 0
20 | Nc1[nH]c(=O)nc2c1ncn2[C@@H]1O[C@H](CO)[C@@H](O)[C@H]1O [Crotonoside] (10 µM) | 0 | 0 | 0 | 0 | 0 | 0 | 0 | 0 | 0 | 0
21 | CN(C)Cc1cccc(N=C(c2ccccc2)c2c(O)[nH]c3cc(C(N)=O)ccc23)c1 (10 µM) | 0 | 0 | 0 | 0 | 0 | 0 | 0 | 0 | 0 | 0
22 | O=C(CO)N1CCC(c2n[nH]c(-c3ccc(Cl)cc3)c2-c2ccncn2)CC1 (10 µM) | 0 | 0 | 0 | 0 | 0 | 0 | 0 | 0 | 0 | 0
23 | CNC(=O)c1cc(Oc2ccc3nc(N[C@@H]4CCCC[C@H]4O)sc3c2)ccn1 (10 µM) | 0 | 0 | 0 | 0 | 0 | 0 | 0 | 0 | 0 | 0
24 | O=c1ccc2ccc(O)c(O)c2o1 [Daphnetin] (10 µM) | 0 | 0 | 0 | 0 | 0 | 0 | 0 | 0 | 0 | 0
25 | CC(C)(O)[C@@H]1CC[C@](C)([C@H]2[C@@H](O)C[C@@]3(C)[C@@H]4C[C@H](O[C@@H]5O[C@H](CO)[C@@H](O)[C@H](O)[C@H]5O)[C@H]5C(C)(C)[C@@H](O[C@@H]6OC[C@@H](O)[C@H](O)[C@H]6O[C@@H]6O[C@H](CO)[C@@H](O)[C@H](O)[C@H]6O)CC[C@@]56C[C@@]46CC[C@]23C)O1 [Astragaloside VI] (10 µM) | 0 | 0 | 0 | 0 | 0 | 0 | 0 | 0 | 0 | 0
26 | COc1cc(N2CCC(N3CCN(C)CC3)CC2)ccc1Nc1nc2c(c(Nc3ccccc3S(=O)(=O)NC(C)C)n1)CCN2 [Conteltinib] (10 µM) | 0 | 0 | 0 | 0 | 0 | 0 | 0 | 0 | 0 | 0
27 | Cc1cc(Nc2cc(CN3CCOCC3)c3nc(C)c(Cc4ccc(Cl)cc4F)n3n2)n[nH]1 [Gandotinib] (2.5 µM) | 0 | 0 | 0 | 0 | 0 | 0 | 0 | 0 | 0 | 0
28 | C[C@@H]1COCCN1c1cc(=O)n2c(n1)N(Cc1cncc(Cl)c1)[C@H](C(F)(F)F)CC2 (10 µM) | 0 | 3 | 0 | 0 | 0 | 0 | 1 | 0 | 0 | 0
29 | CN(CC(=O)N(Cc1ccc(C2CCCCC2)cc1)c1ccc(C(=O)O)c(O)c1)S(=O)(=O)c1c(F)c(F)c(F)c(F)c1F (2.5 µM) | 0 | 0 | 0 | 0 | 0 | 0 | 0 | 0 | 0 | 0
30 | CC[C@@H](N)CNc1ccnc(-c2cc(-c3cnn(C)c3)ccc2O)n1 (2.5 µM) | 4 | 0 | 0 | 0 | 0 | 1 | 0 | 0 | 0 | 0
31 | OCCN(CCO)c1ccc(C(c2ccc(Cl)cc2)c2ccc(N(CCO)CCO)cc2)cc1 (10 µM) | 0 | 0 | 0 | 0 | 4 | 0 | 0 | 0 | 4 | 2
32 | CC(C)c1ccc(CC(=O)N2CCN(c3ccc(C#N)nn3)CC2)cc1 (10 µM) | 0 | 0 | 0 | 0 | 0 | 0 | 0 | 0 | 0 | 0
33 | CC1(COc2ccc3c(c2)ncn3-c2ccc3cccc(N4CCC(N)CC4)c3n2)COC1 [Crenolanib] (2.5 µM) | 0 | 3 | 0 | 0 | 2 | 3 | 0 | 0 | 0 | 0
